Test results as given in article PMC11164680.

Sequences of proteins named here, by UniProt entry; tags and fusion partners are left off. A change or cut given only in a name is not applied to a line headed by its entry. A line that says so, or that is headed by a name, gives the form on record, which may keep a tag or linker.
HA-tagged P4HA2, wild type (O15460, form named): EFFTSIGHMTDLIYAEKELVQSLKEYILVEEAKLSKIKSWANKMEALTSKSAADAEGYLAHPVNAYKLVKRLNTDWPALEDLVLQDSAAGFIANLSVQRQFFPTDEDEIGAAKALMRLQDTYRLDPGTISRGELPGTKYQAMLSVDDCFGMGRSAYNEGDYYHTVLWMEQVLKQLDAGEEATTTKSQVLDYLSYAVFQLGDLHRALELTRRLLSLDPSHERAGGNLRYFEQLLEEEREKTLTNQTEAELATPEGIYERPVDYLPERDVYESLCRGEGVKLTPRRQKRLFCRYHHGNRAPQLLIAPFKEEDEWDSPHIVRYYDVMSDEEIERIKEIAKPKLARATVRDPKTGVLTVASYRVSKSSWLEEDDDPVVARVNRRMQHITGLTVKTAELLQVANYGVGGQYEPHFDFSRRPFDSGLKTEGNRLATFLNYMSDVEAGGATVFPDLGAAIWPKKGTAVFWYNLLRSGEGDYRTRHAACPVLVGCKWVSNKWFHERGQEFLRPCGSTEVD
UniProt O14965: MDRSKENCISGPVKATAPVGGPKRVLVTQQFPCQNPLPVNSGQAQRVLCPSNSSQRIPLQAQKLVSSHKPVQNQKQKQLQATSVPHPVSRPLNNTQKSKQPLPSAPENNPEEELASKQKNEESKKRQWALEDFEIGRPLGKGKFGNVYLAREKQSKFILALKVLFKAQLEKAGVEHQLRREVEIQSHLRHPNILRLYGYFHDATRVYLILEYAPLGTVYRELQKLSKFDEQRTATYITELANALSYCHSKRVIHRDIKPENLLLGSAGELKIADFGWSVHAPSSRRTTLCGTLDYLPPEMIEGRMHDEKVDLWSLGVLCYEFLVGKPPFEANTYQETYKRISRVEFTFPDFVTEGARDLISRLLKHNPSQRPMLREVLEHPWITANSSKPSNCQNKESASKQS
UniProt Q14004: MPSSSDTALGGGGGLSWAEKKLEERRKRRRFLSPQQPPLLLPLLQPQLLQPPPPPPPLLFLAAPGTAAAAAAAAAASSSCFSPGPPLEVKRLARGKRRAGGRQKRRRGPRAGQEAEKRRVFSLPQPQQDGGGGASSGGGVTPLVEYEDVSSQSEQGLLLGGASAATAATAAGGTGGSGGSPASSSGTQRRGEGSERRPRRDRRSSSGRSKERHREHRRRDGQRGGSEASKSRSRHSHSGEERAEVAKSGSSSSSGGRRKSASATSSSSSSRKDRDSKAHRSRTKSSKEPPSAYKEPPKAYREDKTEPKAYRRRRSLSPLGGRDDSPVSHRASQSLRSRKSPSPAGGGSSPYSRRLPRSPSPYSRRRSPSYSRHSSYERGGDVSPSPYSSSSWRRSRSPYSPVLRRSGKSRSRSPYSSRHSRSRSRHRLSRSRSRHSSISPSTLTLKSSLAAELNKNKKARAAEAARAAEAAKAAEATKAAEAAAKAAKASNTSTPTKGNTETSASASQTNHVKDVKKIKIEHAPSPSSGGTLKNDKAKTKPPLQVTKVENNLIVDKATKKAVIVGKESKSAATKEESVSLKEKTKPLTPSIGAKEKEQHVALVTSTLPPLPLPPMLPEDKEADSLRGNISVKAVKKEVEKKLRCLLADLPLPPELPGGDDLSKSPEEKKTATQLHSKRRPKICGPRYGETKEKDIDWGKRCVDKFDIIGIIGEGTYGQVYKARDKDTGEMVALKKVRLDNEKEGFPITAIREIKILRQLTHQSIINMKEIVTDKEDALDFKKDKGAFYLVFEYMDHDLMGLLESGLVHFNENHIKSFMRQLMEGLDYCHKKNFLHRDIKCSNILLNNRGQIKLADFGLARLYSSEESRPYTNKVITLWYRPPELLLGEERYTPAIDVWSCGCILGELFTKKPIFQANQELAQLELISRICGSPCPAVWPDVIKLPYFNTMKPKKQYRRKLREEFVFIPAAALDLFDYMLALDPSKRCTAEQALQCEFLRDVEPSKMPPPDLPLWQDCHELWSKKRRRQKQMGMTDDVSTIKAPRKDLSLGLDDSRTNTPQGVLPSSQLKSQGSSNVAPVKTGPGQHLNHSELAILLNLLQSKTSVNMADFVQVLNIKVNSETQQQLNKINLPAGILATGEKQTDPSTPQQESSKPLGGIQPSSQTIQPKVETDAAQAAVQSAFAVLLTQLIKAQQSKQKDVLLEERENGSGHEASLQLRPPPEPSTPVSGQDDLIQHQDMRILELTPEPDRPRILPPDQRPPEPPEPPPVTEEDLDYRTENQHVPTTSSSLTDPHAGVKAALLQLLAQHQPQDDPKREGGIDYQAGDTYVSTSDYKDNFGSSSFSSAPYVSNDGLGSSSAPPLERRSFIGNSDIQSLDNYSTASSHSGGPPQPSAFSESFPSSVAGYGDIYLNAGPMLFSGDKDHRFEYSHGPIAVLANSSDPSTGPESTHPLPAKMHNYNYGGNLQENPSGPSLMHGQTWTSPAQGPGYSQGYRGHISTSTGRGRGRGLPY

Molecular target: HA-tagged P4HA2, wild type (human) (UniProt O15460)
Assay: affinity purification with mass spectrometry; anti-Flag or anti-HA IP from whole-cell lysates of 293T cells transfected with Flag-mTOR or HA-P4HA2, normoxia; IP buffer 50 mM Tris-HCl pH 7.5, 150 mM NaCl, 0.5% NP-40, 10% glycerol; eluted with 8 M urea, trypsin, Orbitrap Fusion Lumos

binding | Substance
binds | Aurora kinase A, endogenous in 293T cells (from UniProt O14965 1-403) (enzyme)
binds | Cyclin-dependent kinase 13, endogenous in 293T cells (from UniProt Q14004 1-1512) (enzyme)

These are yes or no findings as the source states them, for the method shown. In cells and extracts the contact can be indirect. A yes stands for co-enrichment or nearness to the bait. Other partners may have been found.
